Structures were worked out from names or drawings and are uncertain.

By UniProt entry, the sequences of proteins in these tests, tags left out.
UniProt Q15562, whole entry: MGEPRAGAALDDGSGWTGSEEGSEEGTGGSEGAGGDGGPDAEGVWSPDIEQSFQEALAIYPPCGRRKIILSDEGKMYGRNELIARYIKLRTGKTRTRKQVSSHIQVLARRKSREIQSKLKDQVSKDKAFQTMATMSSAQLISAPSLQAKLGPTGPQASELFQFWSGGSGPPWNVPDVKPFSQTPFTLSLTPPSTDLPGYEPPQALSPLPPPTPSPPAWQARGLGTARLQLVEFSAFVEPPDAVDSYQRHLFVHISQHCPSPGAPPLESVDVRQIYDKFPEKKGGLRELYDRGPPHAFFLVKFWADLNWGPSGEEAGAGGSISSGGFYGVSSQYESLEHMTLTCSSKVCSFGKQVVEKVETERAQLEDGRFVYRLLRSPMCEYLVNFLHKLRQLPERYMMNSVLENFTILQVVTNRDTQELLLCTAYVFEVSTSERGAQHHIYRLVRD

For assay [1], the target named is T1, TEAD2 (Homo sapiens (Human), UniProt Q15562). Briefly: In vitro palmitoylation (TEAD2 autopalmitoylation, streptavidin blot). The note with it: compound at 10 μM; Table 3. How it is done: Recombinant GST-TEAD2 or His6TEAD2 (500 ng) protein was pre-incubated with the compounds at indicated concentrations for 15 min. and then incubated with 1 μM of alkyne palmitoyl-5 CoA (Cayman Chemical) for 30 min or 50 mM MES, pH 6.4, followed by Click reaction with biotin-azide as previously described (Zheng, B. et al., J. Am. Chem. Soc., 2013, 135, 7082-7085). Click reaction was performed with 100 μM biotin-azide, 1 mM tris(2-carboxyethyl) phosphine hydrochloride (TCEP), 100 μM tris[(1-benzyl-1H-1,2,3-triazol-4-yl) methyl] amine (TBTA) and 1 mM CuSO4 for 1 h at RT.
The reactions were terminated by the addition of 12 μL of 6×SDS-sample loading buffer (50 mM Tris-HCl, pH 6.8, 6% SDS, 48% Glycerol, 0.03% Bromophenol Blue, 30 mM EDTA, 9% MeSH). Samples were analysed by SDS-PAGE and Western blot was performed by probing with streptavidin HRP and histidine HRP antibodies independently. Bands intensity obtained from streptavidin blot were quantified using BIORAD, Gel doc system and the percentage of inhibition of Tead2 auto palmitoylation is determined by comparing to the DMSO control treated samples.
These compounds were tested for activity in inhibiting TEAD2 palmitoylation in the assay described above.

Assay [2] deals with T1, TEAD2. Put plainly: CMP assay (CPM fluorescence detection of free CoA). Conditions: read-out: TEAD2 palmitoylation IC50; Table 3; unit inferred. The protocol:
7-Diethylamino-3-(4′-Maleimidylphenyl)-4-Methylcoumarin (CPM), which reacts with thiol of CoA liberated in the enzymatic reaction, and gives fluorescent signal (excitation ˜350-380, emission-460-480). The assay detects the product (free CoA) which is produced from palmitoyl-CoA as a method to detect the enzymatic activity. Test compounds that inhibit TEAD activity are therefore able to block the CMP fluorescent signal.
TEAD2/4 protein (10 μL of a 50 ng/μL solution) and a solution the test compound (0.5 μL, variable concentration) were pre-incubated for 30 min at r.t. A mixture prepared from MES pH 6.4 buffer (6.5 μL of a 50 mM solution), EDTA (1 μL of a 20 mM solution), palmitoyl-CoA (1 μL of a 20 μM solution), and 7-diethylamino-3-(4′-maleimidylphenyl)-4-methylcoumarin (1 μL of a 10 μM solution) was added and the resulting mixture was mixed well using a pipette. The solution was then incubated at r.t. for 30-120 min. in the dark, and fluorescence was detected at […] every 30 min. until the fluorescence signal is saturated. An IC50 for the ability of the compound to inhibit fluorescence is calculated from the results.

As for `COc1ccc(Nc2ccc(Oc3ccc(C4CCCCC4)cc3Cl)cc2)c(C(=O)O)c1`, in assay [1], the “% of inhibition of TEAD2 palmitoylation at 10 μM” value came to 96%. Moreover, in assay [2], the IC50 amounted to 790 nM.

Values taken from patent US12187722B2, “Small molecule inhibitors of TEAD transcription factors” (The General Hospital Corporation, priority 2019, dated 2025).
